{"source": "PubChem BioAssay AID2685", "about": "(National Center for Advancing Translational Sciences (NCATS), 2010)", "assay": "qHTS Assay for Lipid Storage Modulators in Drosophila S3 Cells;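 for cell number change: cells counted by Cell Tracker Red CMTPX staining in the red channel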", "settings": "BODIPY lipid droplet fluorescence, 18-24 h; for cell number change: measured here: cell count max response, cells fed with added oleic acid", "outline": "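Drosophila S3 cells loaded with oleic acid (400 uM, as added) and compounds at several concentrations; lipid droplets imaged by 488-nm laser-scanning cytometry, 500–530 nm intensity and object ratio to cell channel. Percent activity normalized to 20 uM Triacsin C.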", "key": {"[1]": {"settings": "measured here: cell number channel AC50, cells fed with added oleic acid"}, "[2]": {"settings": "measured here: lipid fluorescence (Fed channel) AC50, cells fed with added oleic acid"}}, "note": "Some of the results follow. Shown are side measurements of this screen, not its main read-out; they come without a call. Compounds called inactive in the main read-out are mostly missing here. Potencies come from curve fits of mixed quality, noted in brackets.", "data": [{"smiles": "O=C(CCCC(=O)N(CC(=O)NC1CCCCC1)CC1CCCO1)Nc1ccccn1", "note": "(stereo not given)", "values": [{"measurement": "cell number change", "value": 34.7, "unit": "%"}, {"measurement": "AC50", "setting": "[1]", "value": "16.4 µM [rising, single point]"}, {"measurement": "AC50", "setting": "[2]", "value": "29.1 µM [rising, single point]"}]}, {"smiles": "COc1ccc(OC)c(NC(=O)c2cc(-c3cc(C)ccc3O)n[nH]2)c1", "values": [{"measurement": "cell number change", "value": 187, "unit": "%"}, {"measurement": "AC50", "setting": "[1]", "value": "29.1 µM [rising, single point]"}, {"measurement": "AC50", "setting": "[2]", "value": "0.0326 µM [rising, full curve, poor fit]"}]}, {"smiles": "Cc1ccc(C(=O)COC(=O)c2ccc(Cl)c(N)c2)s1", "values": [{"measurement": "cell number change", "value": -19.3, "unit": "%"}, {"measurement": "AC50", "setting": "[2]", "value": "29.1 µM [rising, single point]"}]}, {"smiles": "Cc1c(CCC(=O)N[C@@H](C)C(=O)O)c(=O)oc2cc3oc4c(c3cc12)CCCC4", "values": [{"measurement": "AC50", "setting": "[2]", "value": "6.51 µM [falling, single point]"}]}, {"smiles": "COCCCn1c(SC(C)C(=O)Nc2c(C)n(C)n(-c3ccccc3)c2=O)n[nH]c1=O", "note": "(stereo not given)", "values": [{"measurement": "cell number change", "value": -23.7, "unit": "%"}]}, {"smiles": "O=C(NCc1ccccn1)C1CCCN(S(=O)(=O)c2ccc(Br)cc2)C1", "note": "(stereo not given)", "values": [{"measurement": "cell number change", "value": -4.5, "unit": "%"}, {"measurement": "AC50", "setting": "[2]", "value": "29.1 µM [falling, single point]"}]}, {"smiles": "O=C(c1cc(COc2cccc(C(F)(F)F)c2)on1)N1C[C@@H]2CCC[C@H]1C2", "values": [{"measurement": "cell number change", "value": -0.268, "unit": "%"}, {"measurement": "AC50", "setting": "[2]", "value": "29.1 µM [falling, single point]"}]}, {"smiles": "CNS(=O)(=O)c1ccc(NC(=O)C2CC(=O)N(c3ccc(Cl)cc3)C2)cc1", "note": "(stereo not given)", "values": [{"measurement": "cell number change", "value": 116, "unit": "%"}]}, {"smiles": "COCCNc1nc2nonc2nc1N(C)Cc1ccc(C)cc1", "values": [{"measurement": "cell number change", "value": 14.4, "unit": "%"}, {"measurement": "AC50", "setting": "[2]", "value": "4.11 µM [rising, full curve, poor fit]"}]}, {"smiles": "COc1ccccc1-n1cnnc1SCC(=O)Nc1ncc(Cl)cc1Cl", "values": [{"measurement": "AC50", "setting": "[2]", "value": "6.51 µM [falling, single point]"}]}, {"smiles": "COc1ccc(CCNC(=O)c2cnn(-c3ccc(C)c(C)c3)c2NC(=O)c2ccco2)cc1OC", "values": [{"measurement": "cell number change", "value": 3.22, "unit": "%"}, {"measurement": "AC50", "setting": "[2]", "value": "29.1 µM [rising, single point]"}]}, {"smiles": "Cc1ccc(NC(=O)c2ccc(S(=O)(=O)N3CCC(C)CC3)cc2)nc1", "values": [{"measurement": "cell number change", "value": 39.9, "unit": "%"}, {"measurement": "AC50", "setting": "[1]", "value": "18.4 µM [rising, single point]"}, {"measurement": "AC50", "setting": "[2]", "value": "6.51 µM [rising, single point]"}]}, {"smiles": "CC(C)(CNC(=O)c1cccc(S(=O)(=O)Nc2ccc(Br)cc2)c1)N1CCOCC1", "values": [{"measurement": "AC50", "setting": "[2]", "value": "0.731 µM [falling, single point]"}]}, {"smiles": "CC(C)(C)N1CC2(c3ccccc3)CN(C(C)(C)C)CC(c3ccccc3)(C1)C2=O", "values": [{"measurement": "cell number change", "value": 3.41, "unit": "%"}, {"measurement": "AC50", "setting": "[1]", "value": "0.0116 µM [rising, full curve, poor fit]"}, {"measurement": "AC50", "setting": "[2]", "value": "4.11 µM [rising, partial curve, poor fit]"}]}, {"smiles": "CCCCn1c(N)c(N(CCC(C)C)C(=O)COC(=O)c2sccc2C)c(=O)[nH]c1=O", "values": [{"measurement": "cell number change", "value": -7.15, "unit": "%"}, {"measurement": "AC50", "setting": "[2]", "value": "0.461 µM [falling, single point]"}]}, {"smiles": "Cc1ccn2c(c1)nc(=O)c1cc(S(=O)(=O)N3CCCCC3)ccc12", "values": [{"measurement": "cell number change", "value": -10.7, "unit": "%"}, {"measurement": "AC50", "setting": "[2]", "value": "29.1 µM [falling, single point]"}]}, {"smiles": "Cc1ccsc1C(=O)NNC(=S)NCC(C)C", "values": [{"measurement": "cell number change", "value": 33.2, "unit": "%"}]}, {"smiles": "COc1cc(/C=C2\\C(=O)N(c3ccc(NC(C)=O)cc3)N=C2c2ccccc2)ccc1O", "values": [{"measurement": "cell number change", "value": -0.113, "unit": "%"}, {"measurement": "AC50", "setting": "[1]", "value": "0.731 µM [falling, single point]"}, {"measurement": "AC50", "setting": "[2]", "value": "29.1 µM [rising, single point]"}]}, {"smiles": "Cc1ccsc1C(=O)N(c1nc2ccccc2s1)c1c(C)cccc1C", "values": [{"measurement": "cell number change", "value": -24.8, "unit": "%"}, {"measurement": "AC50", "setting": "[2]", "value": "9.2 µM [falling, partial curve]"}]}, {"smiles": "O=C(c1ccccc1)c1c(O)cc(-c2ccccc2)oc1=O", "values": [{"measurement": "AC50", "setting": "[2]", "value": "20.6 µM [rising, single point]"}]}, {"smiles": "O=C(NC1CCSc2ccccc21)c1ccc(F)cc1", "note": "(stereo not given)", "values": [{"measurement": "cell number change", "value": 25.8, "unit": "%"}]}, {"smiles": "Cc1cc(C)n2nc(CNS(=O)(=O)c3ccc(CC(C)C)cc3)nc2n1", "values": [{"measurement": "cell number change", "value": 18.2, "unit": "%"}, {"measurement": "AC50", "setting": "[2]", "value": "20.6 µM [rising, partial curve, poor fit]"}]}, {"smiles": "CC1C(c2ccccc2)=[N+]([O-])C2(CCCCC2)N1O", "note": "(stereo not given)", "values": [{"measurement": "AC50", "setting": "[1]", "value": "0.00461 µM [rising, full curve, poor fit]"}]}, {"smiles": "O=C(Nc1ccc(S(=O)(=O)N2CCCC2)cc1)c1ccc2c(=O)n3c(nc2c1)CCCCC3", "values": [{"measurement": "cell number change", "value": 14.9, "unit": "%"}, {"measurement": "AC50", "setting": "[2]", "value": "29.1 µM [rising, single point]"}]}, {"smiles": "COC(=O)c1cc(CNC(=O)c2ccc(N3CCCC3)c([N+](=O)[O-])c2)ccc1OC", "values": [{"measurement": "cell number change", "value": -8, "unit": "%"}, {"measurement": "AC50", "setting": "[2]", "value": "3.16 µM [falling, single point]"}]}, {"smiles": "CCOc1ccc(N(CC(=O)NCCSCc2ccccc2Cl)S(C)(=O)=O)cc1", "values": [{"measurement": "cell number change", "value": -38.1, "unit": "%"}, {"measurement": "AC50", "setting": "[1]", "value": "18.4 µM [falling, partial curve]"}]}, {"smiles": "CC(C)CNC(=O)c1cc([N+](=O)[O-])ccc1N1CCOCC1", "values": [{"measurement": "cell number change", "value": 32.5, "unit": "%"}, {"measurement": "AC50", "setting": "[1]", "value": "29.1 µM [rising, single point]"}, {"measurement": "AC50", "setting": "[2]", "value": "16.4 µM [rising, single point]"}]}, {"smiles": "COc1ccc(N(C)C(=O)C2CCCN2S(=O)(=O)c2cccc3nsnc23)c(OC)c1", "note": "(stereo not given)", "values": [{"measurement": "cell number change", "value": -6.27, "unit": "%"}, {"measurement": "AC50", "setting": "[2]", "value": "29.1 µM [rising, single point]"}]}, {"smiles": "CCOC(=O)NC1(NCc2ccccc2)Oc2ccccc2O1", "values": [{"measurement": "cell number change", "value": 45.7, "unit": "%"}, {"measurement": "AC50", "setting": "[1]", "value": "29.1 µM [rising, single point]"}]}]}
